US7354991B2, “Peptides for the diagnosis of schizophrenia” (Yeda Research and Development Co. Ltd, priority 2001, dated 2008)

Tested on: plasma samples from non schizophrenic individuals
Experiment: Enzyme immunoassay: binding of biotin-labeled peptide on streptavidine coated tubes to control plasma
Parameters: species or system human
Settings: seems to be feasible; arbitrary cut-off definitions
Protocol: • 1. Patients and control persons—Thirty-nine schizophrenic patients participated in this study. The following parameters were recorded: gender, age, duration of schizophrenia, number of hospitalizations, years of education and the psychiatric status (PANSS). Fifty plasma samples were obtained from a local blood bank. • 2. Plasma—Venous blood was drawn with heparin as […] from patients and control subjects. Plasma was obtained after centrifugation (4000 g; 15 mins. 4° C.). • 3. Peptide synthesis and biotin labeling—The peptides were synthesized on an Abimed 522 at a 10 micromol scale by Eurosequence b.v., (Nijenborgh 4: 9747 AG Groningen; The Netherlands) and labeled at the amino terminal with biotin containing a six carbon spacer. Peptide purity was routinely assessed by RP-HPLC and, when considered necessary, by laser desorption mass spectroscopy. The peptides were routinely dissolved in 1 ml water/DMF/DMSO (1:1:1; v/v/v). • 4. […] The absorbence was read at 450 nm spectrophotometrically. […]
Therefore, an experiment was carried out with the biotin-LVVGLCK as follows: the peptide was biotin-labeled and coated onto streptavidine coated tubes as explained above. Plasma samples of 39 schizophrenic patients and 50 control non schizophrenic individuals were tested with the coated peptide and the level of binding was determined by the enzyme immunoassay described above.

LVVGLCK
specificity of the diagnostic test: > 90%
